PubChem BioAssay AID743121 – NCATS | 2013

Test: 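Genes whose silencing strengthens cell killing by camptothecin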 (primary screen)
System: MDA-MB-231 cells, a human breast cancer line
Reagent: single siRNA against human genes, 20 nM siRNA (0.8 pmol per well)
Timing: 120 h (drug added 48 h after transfection, read 72 h later)
Challenge: camptothecin 20 nM (about EC30) for 72 h; vehicle 0.1% DMSO in parallel plates
Detection: 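Cell viability by ATP luminescence (CellTiter-Glo) as % of non-targeting siRNA wells, and the log2 ratio of viability without drug over viability with camptothecin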
Scale: log2 vehicle/camptothecin viability: higher = stronger sensitisation to camptothecin; viability with camptothecin: higher = more viable cells
Units: viability with camptothecin in % of control
Hit rule: 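Each gene scored by redundant siRNA activity (RSA) over its individual siRNA ratios; a gene is called active at p < 0.001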
In all, the deposit lists about 26,000 reagents; this is a part drawn at random. 167 of all reagents (0.63%) were called active. 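Calls are per gene from RSA p-values that are not deposited; an individual active-marked siRNA can sensitise only weakly.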 Reagents against one gene are numbered here. Not all columns of the deposit are shown. Reagent sequences are not shown.

After knock-down of NFAT5 #1 the results were log2 vehicle/camptothecin viability -0.222; viability with camptothecin 61.4; inactive. NFAT5 #2 scored log2 vehicle/camptothecin viability 0.555; viability with camptothecin 60.2; inactive. After knock-down of NFAT5 #3 the results were log2 vehicle/camptothecin viability 0.74; viability with camptothecin 34.7; inactive. NFAT5 #4 scored log2 vehicle/camptothecin viability -0.0421; viability with camptothecin 82; inactive. Against FLT3 #1 the deposit lists log2 vehicle/camptothecin viability -0.333; viability with camptothecin 62.9; inactive. FLT3 #2 gave log2 vehicle/camptothecin viability -0.232; viability with camptothecin 88.2; inactive.

FLT3 #3 scored log2 vehicle/camptothecin viability 0.546; viability with camptothecin 56; inactive. FLT3 #4 showed log2 vehicle/camptothecin viability -0.242; viability with camptothecin 68.9; inactive. With knock-down of RLBP1 #1 the results were log2 vehicle/camptothecin viability 0.0455; viability with camptothecin 76.8; inactive. With knock-down of RLBP1 #2, the record shows log2 vehicle/camptothecin viability -0.249; viability with camptothecin 76.8; inactive. RLBP1 #3 scored log2 vehicle/camptothecin viability 0.0861; viability with camptothecin 31.3; inactive. Knock-down of KMT2B #1 came out at: log2 vehicle/camptothecin viability 0.821; viability with camptothecin 13.6; inactive.

Depletion of KMT2B #2 gave: log2 vehicle/camptothecin viability -0.0391; viability with camptothecin 84.9; inactive. After knock-down of KMT2B #3 the results were log2 vehicle/camptothecin viability -0.469; viability with camptothecin 61.7; inactive. Against KMT2B #4, the entry reads log2 vehicle/camptothecin viability -0.404; viability with camptothecin 59.1; inactive. After knock-down of WASL #1, the screen gave log2 vehicle/camptothecin viability -0.109; viability with camptothecin 124; inactive. Silencing of WASL #2 resulted in: log2 vehicle/camptothecin viability -1.31; viability with camptothecin 72.4; inactive. For WASL #3, the values are log2 vehicle/camptothecin viability -0.295; viability with camptothecin 65.4; inactive.

For RNF38 #1, the values are log2 vehicle/camptothecin viability 0.319; viability with camptothecin 60; inactive. For RNF38 #2 the deposit lists log2 vehicle/camptothecin viability 0.0644; viability with camptothecin 101; inactive. With knock-down of RNF38 #3 the results were log2 vehicle/camptothecin viability 0.117; viability with camptothecin 91.3; inactive. Knock-down of RNF38 #4 gave: log2 vehicle/camptothecin viability 0.218; viability with camptothecin 74.5; inactive. FOXD2 #1 scored log2 vehicle/camptothecin viability 0.16; viability with camptothecin 54.1; inactive. FOXD2 #2 gave log2 vehicle/camptothecin viability -0.228; viability with camptothecin 115; inactive.

FOXD2 #3 showed log2 vehicle/camptothecin viability -0.495; viability with camptothecin 99.7; inactive. For FOXD2 #4 the deposit lists log2 vehicle/camptothecin viability -0.56; viability with camptothecin 28.3; inactive.

Ordered by “log2 vehicle/camptothecin viability” (highest first): 4 of the entries above
RNF38 #4 — log2 vehicle/camptothecin viability = 0.218; viability with camptothecin = 74.5; outcome = inactive
FOXD2 #1 — log2 vehicle/camptothecin viability = 0.16; viability with camptothecin = 54.1; outcome = inactive
FOXD2 #2 — log2 vehicle/camptothecin viability = -0.228; viability with camptothecin = 115; outcome = inactive
FOXD2 #3 — log2 vehicle/camptothecin viability = -0.495; viability with camptothecin = 99.7; outcome = inactive
